In the supplement of paper PMC12764529:
± gives the half width of the 95% confidence interval. The two proteases of the assay disagree for many of these sequences.

How the values were obtained:
[1] = folding stability dG unfold from chymotrypsin proteolysis; higher = more stable
Description: (§1)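 Folding stability of de novo designed mini-proteins (<80 aa, no Cys; designed by TrROS, TrMRF, ProteinMPNN and the joint model) was measured by cDNA display proteolysis with trypsin and chymotrypsin. Each protease was used at 11 concentrations in a threefold dilution series plus a no-protease condition. K50 was inferred by Bayesian fitting of sequencing counts, and dG unfold was derived against a sequence-predicted unfolded-state K50 (Tsuboyama et al. method). Sequences shown include variable-length N-terminal GS-type padding (SAGGSAGG...) inside a display construct carrying a PA tag. Rows were kept only if the AF2 dimer inter-PAE was >15, to exclude likely homo-oligomers.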

[2] = folding stability dG unfold (combined trypsin and chymotrypsin); higher = more stable
Description: as §1

| Sequence | folding stability dG unfold [1] | folding stability dG unfold [2] |
| --- | --- | --- |
| SAGGSANLPPGQPKIITITIPLGEEVRNPDGEPMTPEDIADNFQERFGNIEVEKSPNGWLEVTFWLSAGGSA [r15_645_TrROS] | 0.637 ± 0.15 kcal/mol | 1.18 ± 0.19 kcal/mol |
| SAGGGSSVSSRTLTTPDGGTLTVNNMTNPGSSITATFYNPATGVSVPLPFTSESEADAALAALAAALSAGGS [r16_736_JUSTAS] | 1.02 ± 0.098 kcal/mol | 0.494 ± 0.087 kcal/mol |
| SAGGSAGGMLTLSFSSPEDAAKARELLAAAGARWEEDPATGTLRVDLDEATREALKQLPGVTLESAGGSAGG [r6_726_JUSTAS] | 3.72 ± 0.058 kcal/mol | 3.4 ± 0.085 kcal/mol |
| SAGGMTPAVTETTIELPASDPEAAIAALRAAGWELLARERGPDGSVRMVFAAPTRRVTVDFVGPAAASAGGS [r16_170_JUSTAS] | 2.03 ± 0.039 kcal/mol | 1.71 ± 0.032 kcal/mol |
| SAGGSAGGSAGMTRTTELPEGVLTVTTEEPEEDVVLVTEEEVVDGEVVRVTPRRLPPGALSAGGSAGGSAGG [r11_167_JUSTAS] | 1.48 ± 0.026 kcal/mol | 1.11 ± 0.098 kcal/mol |
| SAGSEIEEIIKKIEEELKKKNPNKIVKVEKKKVIKKKKIVFIYEKKKTIEKEEYEIEIEITIKSPNIISAGG [r19_293_JUSTAS] | 1.33 ± 0.21 kcal/mol | 0.83 ± 0.45 kcal/mol |
| SAGGSAGGEERPLRIPAAPVRALARRLPPAPRLVVLARSSVPGRYYIAVIDLRTGEIRVFEADLSAGGSAGG [r6_465_TrMRF] | 3.599 ± 0.032 kcal/mol | 2.91 ± 0.079 kcal/mol |
| SAGGSAGGSAGGIEKFLEKHPELKIKKEIKIKIPYKTKDGKEFEVEYKIFYLTSEDEEDSAGGSAGGSAGGS [r10_0_TrMRF] | 2.74 ± 0.057 kcal/mol | 2.36 ± 0.07 kcal/mol |
| SAGGSAGGSRVGRLEVFPGPGRVLAYFPETGALAVVDLPPDGPARITVYRPGTGEPVVLPAPLSAGGSAGGS [r12_55_TrMRF] | 1.58 ± 0.052 kcal/mol | 0.955 ± 0.068 kcal/mol |
| SAGGSAGGSAGGSTVREVRPEVTREPLPADPSLPEVERTTTTTLVDDEWTTTTTTTPVASAGGSAGGSAGGS [r10_1010_JUSTAS] | 1.28 ± 0.02 kcal/mol | 0.775 ± 0.054 kcal/mol |
| SAGGSAGGSAGSSALELAREIARRLGLPEIDLVVEDTRDGEVTTTVLRLPVEPPPLPELLSAGGSAGGSAGG [r17_40_JUSTAS] | 1 ± 0.13 kcal/mol | 0.483 ± 0.087 kcal/mol |
| SAGGSAGGSAGGKSIPIEELAARFAPEGEANAVNTETGEVVVITLPPETGEAKPRVFPASAGGSAGGSAGGS [r10_777_TrMRF] | 1.05 ± 0.054 kcal/mol | 0.718 ± 0.1 kcal/mol |
| SSLTLTELLSESSETDPAGTTTRTLVELAEEPDEPVVVTTTTTTTTDAAGNSTTTTTTTVVPASAPGIAASA [r9_300_JUSTAS] | 1.19 ± 0.05 kcal/mol | 0.834 ± 0.074 kcal/mol |
| SAGGVSSSYDPKTNLKIIEKTIDDELEIKIIKPKPRPKIVVVPLEELVAKDPSLAPEVAKDPDTEVVLPSAG [r5_958_JUSTAS] | 1.06 ± 0.05 kcal/mol | 0.571 ± 0.11 kcal/mol |
| SAGGSFIKITTKLPNRKIEIPIPDAEIEVEGNTVTITFPPGNAEEVKKAVLEASDEVEITEVKIIDESAGGS [r8_490_JUSTAS] | 0.871 ± 0.026 kcal/mol | 0.557 ± 0.087 kcal/mol |
| SAGGSAGGSAREELVRRAAEEGLPGVRVLAIPPGNREVPAIVEGDKVYSYDLPDDAEVVVASAGGSAGGSAG [r3_244_TrMRF] | 0.408 ± 0.08 kcal/mol | -0.0679 ± 0.086 kcal/mol |
| SAGGSAGGSRTPIRARLRLPDNPAWFEATVDWVAPDGTVYAYIDTPNGERRRVDVILEAEFSGSAGGSAGGS [r12_118_TrMRF] | 1.48 ± 0.034 kcal/mol | 0.942 ± 0.03 kcal/mol |
| SAGGSKKKIYKIKIKIEVINEETGEKKTVEIEIEAESLEEALAAIAKALLPEGQTVKIVDIEIEEVSAGGSA [r2_320_TrROS_Hall] | 3.89 ± 0.079 kcal/mol | 3.73 ± 0.085 kcal/mol |
| SAGGSASVSYDPTPGPTRRTTTLLETEEVGPNLKRVKTKVTLFPSDGVPTTSTVTELDLVPPPELPSAGGSA [r15_1035_JUSTAS] | 0.527 ± 0.057 kcal/mol | 0.128 ± 0.11 kcal/mol |
| SAGGSAGGSAGGPVVARILSYDPERRRLVLELPDGSRLVLPVPDDLRPEDLLDREVVLDLSAGGSAGGSAGG [r7_296_TrMRF] | 2.89 ± 0.062 kcal/mol | 2.41 ± 0.11 kcal/mol |
| SAGGSAGGSAGAVARVVLEDGGEVEILLEPDEPLTVEELERRLVIPPGRRARIARVEILPASAGGSAGGSAG [r3_465_TrMRF] | 1.13 ± 0.036 kcal/mol | 0.547 ± 0.079 kcal/mol |
| SAGGSAGGSAGGSTLEEIRELAKAGKKVKIKLKETGKEVEITPEDLEKLKGKEIEIEEVSAGGSAGGSAGGS [r4_157_TrROS_Hall] | 1.01 ± 0.18 kcal/mol | 0.486 ± 0.43 kcal/mol |
| SAGGAPPPVLVVPFDANLGGEAVPALVAVLPNGEALVFIVGPDGSAGVVPAGALAELLKAPGSLAAVSAGGS [r16_105_TrMRF] | 2.12 ± 0.092 kcal/mol | 1.47 ± 0.13 kcal/mol |
| SAGGSAGGSAGMTITLPNGTVVTVERDESTGVWTITFPDGTTRTLELPDATLAEIEAALASAGGSAGGSAGG [r11_729_JUSTAS] | 3.413 ± 0.018 kcal/mol | 3 ± 0.054 kcal/mol |

| Sequence | folding stability dG unfold [1] | folding stability dG unfold [2] |
| --- | --- | --- |
| SAGGAPTVVSYDPETGSVHVAFGTNPETGEYTVVIVTPDGRPILVPGPVPSLEEAVERAREALAEAGSAGGS [r16_319_TrMRF] | 1.89 ± 0.026 kcal/mol | 1.41 ± 0.13 kcal/mol |
| SAGGSAGGSAGMKTVTETEFDPAAPVVTTTTSLVTLPPDGKPSITSTTTTTTAVAAPAAAASAGGSAGGSAG [r3_138_JUSTAS] | 1.41 ± 0.038 kcal/mol | 1.03 ± 0.062 kcal/mol |
| SAGGSAGGSARIRFPNGYEIEVPRKRNPDGNLEITIESRNPDNPEHREMAKKIARDIADELSAGGSAGGSAG [r3_163_TrROS] | -0.0805 ± 0.06 kcal/mol | -0.526 ± 0.17 kcal/mol |
| SAGGSAGGSAGGGPSVPGYVAVSTEETTELVPLPTPRPALRTTTTETLPTATVTTTTLLLSAGGSAGGSAGG [r7_945_JUSTAS] | 1.45 ± 0.06 kcal/mol | 0.63 ± 0.23 kcal/mol |
| SAGGSARLVSRSPAPVLRYEFPLPSGERLRVDVHPDGTVTVTRFYPERGRPERRTIPGAAIEELLGSAGGSA [r15_406_TrMRF] | 1.29 ± 0.11 kcal/mol | 0.892 ± 0.12 kcal/mol |
| SAGGSAGGSAGKIRIHVPPEMPAEEVANEIQDELREENPGNGYPIKGVEISPGDSLEDIISAGGSAGGSAGG [r17_43_TrROS] | 1.05 ± 0.064 kcal/mol | 0.307 ± 0.19 kcal/mol |
| SAGGSMTVSTAPDGTLKVYDPATGKLNPLPVPPVPLVVSRSVQPDKGVVITTTTTPSGEVTVSTTALSAGGS [r16_453_JUSTAS] | 0.394 ± 0.06 kcal/mol | -0.159 ± 0.075 kcal/mol |
| SAGGSAGGSAMVTVTTPVTALPEEPVRRVTVEVYDLDPAGNPVTRTEVLNPPDGAALPLGESAGGSAGGSAG [r3_53_JUSTAS] | 1.32 ± 0.022 kcal/mol | 0.758 ± 0.087 kcal/mol |
| SAGGSAGGSAGGMVLTLSVDPATGLVTVTLPDGTVVTLSPEELARTPVVVQPLPGPPDTASAGGSAGGSAGG [r7_99_JUSTAS] | 2.42 ± 0.056 kcal/mol | 1.97 ± 0.11 kcal/mol |
| SAGGSAGGSAGPKPGDYVLRPATLTLELGPALVRDPDGNLFEVDRLELQVTVNYLVPAGLSAGGSAGGSAGG [r11_907_TrMRF] | 3.04 ± 0.04 kcal/mol | 2.52 ± 0.1 kcal/mol |
| SGLVVVPVTHPDGGRVLLVFDPATGRVVVFADPDVPLADIAAALRALLPADADAVVTTHPDGTALVELKPSA [r9_933_TrMRF] | 2.736 ± 0.025 kcal/mol | 2.28 ± 0.056 kcal/mol |
| SAGGSAGGSAMKLTKEYVFTKTITLKNGKTKTESEVLTEEVPPIPLEELIKRLGLPPEELISAGGSAGGSAG [r3_338_JUSTAS] | -0.126 ± 0.44 kcal/mol | -0.186 ± 0.32 kcal/mol |
| SAGGSAGGSAGDKKRKERTIEMRNPDNGQEWEIEIPEGLPPDEFKPGQPISMNEIRDAIGSAGGSAGGSAGG [r17_412_TrROS] | 1.03 ± 0.13 kcal/mol | 0.389 ± 0.24 kcal/mol |
| SAGGTVTADLLLPGDRTRLRVVALEPAPETPPNGPRRLNLRARIEVIDPRTGAPRTYTWDAVSGTVSEESAG [r5_212_TrMRF] | 1.65 ± 0.084 kcal/mol | 0.84 ± 0.059 kcal/mol |
| SAGGSAGGSAGGSSARVPFPATGAVLEVRVTPDGRPRVRVFNPATGEVVEFPPGAEVGVSAGGSAGGSAGGS [r4_158_TrMRF] | 0.762 ± 0.036 kcal/mol | 0.0259 ± 0.13 kcal/mol |
| SAGGSAGGSAGGSMLVEPRLVETLVEEGPEEPVPVLVETTVTVTVLPDGSLVVSTETRPASAGGSAGGSAGG [r11_607_JUSTAS] | 1.45 ± 0.078 kcal/mol | 0.988 ± 0.14 kcal/mol |
| SAGGSAGRVVAVPPAGLRVEFPVPEGMTPEEVAELALALADAAVAATGNPDVAVFYDPETGEVVVASAGGSA [r15_33_TrMRF] | 1.45 ± 0.021 kcal/mol | 0.869 ± 0.053 kcal/mol |
| SPPVEALLVDADYDEPVDTAHLTALRVRVLRVEVSPDGRLRAVGESELVEVTVPAPKDAPIPRDAVLLVGSA [r9_277_TrMRF] | 1.18 ± 0.13 kcal/mol | 0.425 ± 0.054 kcal/mol |
| SAAAPEAVEAARAVREALERTRPIHVLVRLPDGSLRSLGPVLRLGPDIPPSVLVPALLELDADEVLIFGSAG [r14_318_TrMRF] | 1.55 ± 0.12 kcal/mol | 0.866 ± 0.2 kcal/mol |
| SAGGSAGGSAGEPVTVRVTAPDGGSRTITIPRETLIEAGITPSDIARALAELTGAEVETTSAGGSAGGSAGG [r11_829_TrMRF] | 1.27 ± 0.035 kcal/mol | 0.783 ± 0.08 kcal/mol |
| SAGMKVTVDLTFTFAPDAVSPEEVRAALAAHGDAVEVKPDPSSDRIPVRVEVPPGREAAVRAALAAAGGSAG [r5_378_JUSTAS] | 1.37 ± 0.082 kcal/mol | 0.783 ± 0.2 kcal/mol |
| MPDISRAEIKALAEKLGLPVPDGTITIKFTYGDKTITVPVDAKKDITLGDIVEAIKKKNPNIKKIEIVAEPS [r1_135_TrMRF] | 0.808 ± 0.08 kcal/mol | 0.907 ± 0.077 kcal/mol |
| SADIELEIFRLDDKIVIVMEQKQDDPDGKERPYYHVQTFELDPGNGKLQPKVYPFKSPADADDALKDGLSAG [r14_500_TrROS] | 1.05 ± 0.24 kcal/mol | 0.596 ± 0.25 kcal/mol |

Copied from the list:
folding stability dG unfold [1], SAGGSAGGSAGMKTVTETEFDPAAPVVTTTTSLVTLPPDGKPSITSTTTTTTAVAAPAAAASAGGSAGGSAG [r3_138_JUSTAS] is entered as 1.41 ± 0.038 kcal/mol
folding stability dG unfold [1], SAGGSAGGSAGKIRIHVPPEMPAEEVANEIQDELREENPGNGYPIKGVEISPGDSLEDIISAGGSAGGSAGG [r17_43_TrROS] is entered as 1.05 ± 0.064 kcal/mol
folding stability dG unfold [2], SAGGSAGGSAGEPVTVRVTAPDGGSRTITIPRETLIEAGITPSDIARALAELTGAEVETTSAGGSAGGSAGG [r11_829_TrMRF] is entered as 0.783 ± 0.08 kcal/mol
folding stability dG unfold [1], SAGMKVTVDLTFTFAPDAVSPEEVRAALAAHGDAVEVKPDPSSDRIPVRVEVPPGREAAVRAALAAAGGSAG [r5_378_JUSTAS] is entered as 1.37 ± 0.082 kcal/mol
